Earlier results as cited in PMC3735429, “Plasmodium falciparum encodes a conserved active inhibitor-2 for Protein Phosphatase type 1: perspectives for novel anti-plasmodial therapy” (BMC Biology, 2013).

System: Plasmodium falciparum
Design: method as in PMID 9636646, PMID 7957765, PMID 8698101
Settings: ref [1]-[3]; cited from earlier work
Text: During its life cycle, Plasmodium falciparum, the deadliest malaria parasite for humans, undergoes several successive rounds of mitosis to amplify parasite populations and consequently to increase the rate of its transmission. Among the essential actors in the growth and division of the parasite are kinases and phosphatases. […] Subsequently, the identification of kinases and phosphatases and their central functions in P. falciparum[4-9] ...

CN[C@@H]1C[C@H]2O[C@@](C)([C@@H]1OC)n1c3ccccc3c3c4c(c5c6ccccc6n2c5c31)C(=O)NC4 [staurosporine]
inhibition of parasite growth in vitro: drastically inhibited parasite growth in vitro
